The record followed here is publication doi:10.1101/2022.04.25.489355.

Chains of the proteins cited; added tags and fusions are not shown.
UniProt P84077: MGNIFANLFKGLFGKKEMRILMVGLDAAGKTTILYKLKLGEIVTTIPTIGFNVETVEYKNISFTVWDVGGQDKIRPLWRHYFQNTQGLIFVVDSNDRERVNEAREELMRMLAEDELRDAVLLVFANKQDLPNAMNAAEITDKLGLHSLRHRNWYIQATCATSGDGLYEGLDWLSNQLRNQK
UniProt P61204: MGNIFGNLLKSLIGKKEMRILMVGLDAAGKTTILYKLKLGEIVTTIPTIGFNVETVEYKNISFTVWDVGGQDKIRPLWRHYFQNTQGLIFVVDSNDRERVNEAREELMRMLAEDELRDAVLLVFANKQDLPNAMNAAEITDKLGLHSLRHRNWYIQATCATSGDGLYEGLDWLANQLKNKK

Results are given in words; binding and its absence hold for the method and conditions named. In cells and extracts the contact can be indirect. Some entries that bind do so weakly or less than the wild type. Tags and fused reporters may be left off the sequences shown.

The target of the test is T1, GST-GGA3-GAT recombinant fusion protein (UniProt Q9NZ52).
T1 sequence: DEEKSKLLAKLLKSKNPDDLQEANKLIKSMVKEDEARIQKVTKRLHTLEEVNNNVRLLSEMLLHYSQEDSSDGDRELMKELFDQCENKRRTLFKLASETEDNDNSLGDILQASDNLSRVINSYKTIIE
Put plainly: pull-down.

For the substance “mNeonGreen (mNG)-tagged ARF1 (from UniProt P84077 1-181)”, the binding entry is listed as “binds”.

In the case of “mNeonGreen (mNG)-tagged ARF3 (from UniProt P61204 1-181)”, the binding entry is recorded as “binds”.
